Reference: article PMC6718988, “Bioactivity and Bactericidal Mechanism of Histidine-Rich β-Hairpin Peptide Against Gram-Negative Bacteria” (International Journal of Molecular Sciences, 2019)
Where a SMILES comes first, the peptide text is derived from it. [ ]: non-standard residue; d: D form.

Test system: bacterial cells versus human erythrocytes
Details: for TI(−), therapeutic index / TI(+), therapeutic index / TI(+,−), therapeutic index: MHC / GM of MIC, 256 μM used for >128; for TI(−), therapeutic index: Gram-negative; for TI(+), therapeutic index: Gram-positive; for TI(+,−), therapeutic index: all strains

| Molecule | TI(−), therapeutic index | TI(+), therapeutic index | TI(+,−), therapeutic index | TI against Gram-negative bacteria relative to that of PG-1 (ratio of TI(−) of HV2 to TI(−) of PG-1) [times] |
| --- | --- | --- | --- | --- |
| N=C(N)NCCC[C@H](NC(=O)[C@H](CCCNC(=N)N)NC(=O)[C@H](Cc1ccccc1)NC(=O)[C@H](Cc1c[nH]cn1)NC(=O)[C@H](Cc1ccccc1)NC(=O)[C@H](Cc1c[nH]cn1)NC(=O)[C@H](Cc1ccccc1)NC(=O)CNC(=O)[C@H]1CCCN1C(=O)[C@H](Cc1ccccc1)NC(=O)[C@H](Cc1c[nH]cn1)NC(=O)[C@H](Cc1ccccc1)NC(=O)[C@H](Cc1c[nH]cn1)NC(=O)[C@H](Cc1ccccc1)NC(=O)[C@H](CCCNC(=N)N)NC(=O)[C@@H](N)CCCNC(=N)N)C(N)=O [HF2] (H-RRFHFHF[dP]GFHFHFRR-NH2; N-terminus assumed) | 2.00 | 1.59 | 1.85 | – |
| CC[C@H](C)[C@H](NC(=O)CNC(=O)[C@H]1CCCN1C(=O)[C@@H](NC(=O)[C@H](Cc1c[nH]cn1)NC(=O)[C@@H](NC(=O)[C@H](Cc1c[nH]cn1)NC(=O)[C@@H](NC(=O)[C@H](CCCNC(=N)N)NC(=O)[C@@H](N)CCCNC(=N)N)[C@@H](C)CC)[C@@H](C)CC)[C@@H](C)CC)C(=O)N[C@@H](Cc1c[nH]cn1)C(=O)N[C@H](C(=O)N[C@@H](Cc1c[nH]cn1)C(=O)N[C@H](C(=O)N[C@@H](CCCNC(=N)N)C(=O)N[C@@H](CCCNC(=N)N)C(N)=O)[C@@H](C)CC)[C@@H](C)CC [HI2] (H-RRIHIHI[dP]GIHIHIRR-NH2; N-terminus assumed) | 5.04 | 1 | 2.94 | – |
| CC(C)[C@H](NC(=O)CNC(=O)[C@H]1CCCN1C(=O)[C@@H](NC(=O)[C@H](Cc1c[nH]cn1)NC(=O)[C@@H](NC(=O)[C@H](Cc1c[nH]cn1)NC(=O)[C@@H](NC(=O)[C@H](CCCNC(=N)N)NC(=O)[C@@H](N)CCCNC(=N)N)C(C)C)C(C)C)C(C)C)C(=O)N[C@@H](Cc1c[nH]cn1)C(=O)N[C@H](C(=O)N[C@@H](Cc1c[nH]cn1)C(=O)N[C@H](C(=O)N[C@@H](CCCNC(=N)N)C(=O)N[C@@H](CCCNC(=N)N)C(N)=O)C(C)C)C(C)C [HV2] (H-RRVHVHV[dP]GVHVHVRR-NH2; N-terminus assumed) | 35.9 | 1 | 10.88 | 28 |
| N=C(N)NCCC[C@H](NC(=O)[C@H](CCCNC(=N)N)NC(=O)[C@H](Cc1c[nH]c2ccccc12)NC(=O)[C@H](Cc1c[nH]cn1)NC(=O)[C@H](Cc1c[nH]c2ccccc12)NC(=O)[C@H](Cc1c[nH]cn1)NC(=O)[C@H](Cc1c[nH]c2ccccc12)NC(=O)CNC(=O)[C@H]1CCCN1C(=O)[C@H](Cc1c[nH]c2ccccc12)NC(=O)[C@H](Cc1c[nH]cn1)NC(=O)[C@H](Cc1c[nH]c2ccccc12)NC(=O)[C@H](Cc1c[nH]cn1)NC(=O)[C@H](Cc1c[nH]c2ccccc12)NC(=O)[C@H](CCCNC(=N)N)NC(=O)[C@@H](N)CCCNC(=N)N)C(N)=O [HW2] (H-RRWHWHW[dP]GWHWHWRR-NH2; N-terminus assumed) | 2.25 | 3.17 | 2.52 | – |
| RGGRLCYCRRFCVCVGR-NH2 [PG-1, Protegrin-1, reference compound] | 1.26 | 0.79 | 1.08 | – |
